# Data: PubChem BioAssay (EPA / NIEHS)
# By UniProt entry, the sequences of proteins in these tests, tags left out. Where a name states a change or a piece, a line headed by the entry shows the natural chain unless it says otherwise.
# UniProt P22909, whole entry, looked up: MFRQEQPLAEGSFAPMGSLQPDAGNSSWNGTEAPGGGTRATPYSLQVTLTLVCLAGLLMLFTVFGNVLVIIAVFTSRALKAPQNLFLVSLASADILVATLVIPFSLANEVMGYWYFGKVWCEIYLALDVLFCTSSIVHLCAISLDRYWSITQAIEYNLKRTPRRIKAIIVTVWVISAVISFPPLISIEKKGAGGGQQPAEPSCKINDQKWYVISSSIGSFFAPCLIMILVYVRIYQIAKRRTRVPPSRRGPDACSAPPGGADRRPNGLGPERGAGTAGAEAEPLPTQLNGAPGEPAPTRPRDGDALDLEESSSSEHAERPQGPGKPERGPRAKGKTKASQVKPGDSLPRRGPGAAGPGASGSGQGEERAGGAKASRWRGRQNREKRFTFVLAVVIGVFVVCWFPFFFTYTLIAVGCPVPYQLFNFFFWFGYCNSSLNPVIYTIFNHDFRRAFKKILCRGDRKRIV
# UniProt P30560, whole entry, looked up: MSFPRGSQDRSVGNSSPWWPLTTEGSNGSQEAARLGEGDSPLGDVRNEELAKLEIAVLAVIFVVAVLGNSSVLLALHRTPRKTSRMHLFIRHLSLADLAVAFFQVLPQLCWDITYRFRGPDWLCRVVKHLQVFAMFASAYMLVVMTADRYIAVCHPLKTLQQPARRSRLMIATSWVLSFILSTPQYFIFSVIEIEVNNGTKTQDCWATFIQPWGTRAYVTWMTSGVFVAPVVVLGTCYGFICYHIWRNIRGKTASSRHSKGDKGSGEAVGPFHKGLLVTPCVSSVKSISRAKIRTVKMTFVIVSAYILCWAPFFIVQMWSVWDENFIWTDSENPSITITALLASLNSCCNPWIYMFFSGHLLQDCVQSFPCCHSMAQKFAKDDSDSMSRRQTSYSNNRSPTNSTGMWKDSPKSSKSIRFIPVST
# UniProt Q9QYN8: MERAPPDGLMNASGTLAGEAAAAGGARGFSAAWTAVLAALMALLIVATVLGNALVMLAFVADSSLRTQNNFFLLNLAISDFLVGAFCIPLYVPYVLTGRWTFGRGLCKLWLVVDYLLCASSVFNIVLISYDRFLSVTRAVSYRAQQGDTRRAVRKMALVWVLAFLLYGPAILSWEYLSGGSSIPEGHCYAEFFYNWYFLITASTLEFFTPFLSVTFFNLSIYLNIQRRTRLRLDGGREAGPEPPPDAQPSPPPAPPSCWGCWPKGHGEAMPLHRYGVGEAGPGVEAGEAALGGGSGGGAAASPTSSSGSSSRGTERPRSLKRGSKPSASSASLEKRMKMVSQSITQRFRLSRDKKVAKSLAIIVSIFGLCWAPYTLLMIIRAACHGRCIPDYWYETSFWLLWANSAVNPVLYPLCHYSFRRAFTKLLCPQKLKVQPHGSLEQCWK
# UniProt P33535, whole entry, looked up: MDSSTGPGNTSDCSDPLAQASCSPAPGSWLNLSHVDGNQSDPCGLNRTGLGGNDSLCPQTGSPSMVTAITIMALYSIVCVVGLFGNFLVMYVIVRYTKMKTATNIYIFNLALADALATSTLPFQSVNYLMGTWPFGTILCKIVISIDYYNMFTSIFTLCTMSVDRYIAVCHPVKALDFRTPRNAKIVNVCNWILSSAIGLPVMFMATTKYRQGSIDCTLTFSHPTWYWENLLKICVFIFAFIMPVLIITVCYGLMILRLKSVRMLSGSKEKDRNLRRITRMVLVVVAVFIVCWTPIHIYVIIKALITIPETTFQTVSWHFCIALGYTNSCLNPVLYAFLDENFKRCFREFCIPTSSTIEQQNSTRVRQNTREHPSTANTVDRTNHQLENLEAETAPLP
# UniProt P28646: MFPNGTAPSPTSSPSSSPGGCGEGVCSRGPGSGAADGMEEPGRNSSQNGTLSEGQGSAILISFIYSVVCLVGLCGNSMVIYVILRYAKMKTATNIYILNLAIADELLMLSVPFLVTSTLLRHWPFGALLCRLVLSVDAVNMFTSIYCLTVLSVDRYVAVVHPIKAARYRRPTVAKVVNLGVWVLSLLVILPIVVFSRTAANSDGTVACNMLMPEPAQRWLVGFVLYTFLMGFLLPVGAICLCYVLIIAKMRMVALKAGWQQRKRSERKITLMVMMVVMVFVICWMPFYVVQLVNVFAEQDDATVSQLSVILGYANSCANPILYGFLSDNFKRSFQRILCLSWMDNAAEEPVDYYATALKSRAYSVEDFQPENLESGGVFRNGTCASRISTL
# UniProt Q08E50: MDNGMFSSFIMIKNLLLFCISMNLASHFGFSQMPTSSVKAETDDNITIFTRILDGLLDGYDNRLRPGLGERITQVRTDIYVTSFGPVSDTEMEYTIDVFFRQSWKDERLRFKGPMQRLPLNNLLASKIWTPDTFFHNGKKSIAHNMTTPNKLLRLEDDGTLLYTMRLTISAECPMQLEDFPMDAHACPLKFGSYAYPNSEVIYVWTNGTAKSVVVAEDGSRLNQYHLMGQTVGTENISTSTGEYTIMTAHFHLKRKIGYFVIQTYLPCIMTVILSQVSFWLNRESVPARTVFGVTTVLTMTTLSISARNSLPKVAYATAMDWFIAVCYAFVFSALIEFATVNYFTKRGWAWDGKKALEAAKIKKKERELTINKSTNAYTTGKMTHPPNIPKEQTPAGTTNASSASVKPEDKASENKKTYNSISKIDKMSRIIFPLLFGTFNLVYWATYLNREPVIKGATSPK
# UniProt Q05941, whole entry, looked up: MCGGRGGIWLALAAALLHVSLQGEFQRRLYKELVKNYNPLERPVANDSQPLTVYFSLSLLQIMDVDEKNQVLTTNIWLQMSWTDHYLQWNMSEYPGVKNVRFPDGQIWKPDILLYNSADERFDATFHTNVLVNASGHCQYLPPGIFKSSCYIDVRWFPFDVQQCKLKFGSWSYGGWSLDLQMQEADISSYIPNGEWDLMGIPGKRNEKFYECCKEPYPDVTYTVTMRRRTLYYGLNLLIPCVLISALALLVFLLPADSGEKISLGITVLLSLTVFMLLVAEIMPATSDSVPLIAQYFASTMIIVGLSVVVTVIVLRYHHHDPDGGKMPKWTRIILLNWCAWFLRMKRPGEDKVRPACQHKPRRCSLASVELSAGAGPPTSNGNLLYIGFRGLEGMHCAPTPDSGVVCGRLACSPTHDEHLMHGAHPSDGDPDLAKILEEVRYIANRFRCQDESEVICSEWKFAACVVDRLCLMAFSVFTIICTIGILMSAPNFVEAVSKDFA
# UniProt P14600, whole entry, looked up: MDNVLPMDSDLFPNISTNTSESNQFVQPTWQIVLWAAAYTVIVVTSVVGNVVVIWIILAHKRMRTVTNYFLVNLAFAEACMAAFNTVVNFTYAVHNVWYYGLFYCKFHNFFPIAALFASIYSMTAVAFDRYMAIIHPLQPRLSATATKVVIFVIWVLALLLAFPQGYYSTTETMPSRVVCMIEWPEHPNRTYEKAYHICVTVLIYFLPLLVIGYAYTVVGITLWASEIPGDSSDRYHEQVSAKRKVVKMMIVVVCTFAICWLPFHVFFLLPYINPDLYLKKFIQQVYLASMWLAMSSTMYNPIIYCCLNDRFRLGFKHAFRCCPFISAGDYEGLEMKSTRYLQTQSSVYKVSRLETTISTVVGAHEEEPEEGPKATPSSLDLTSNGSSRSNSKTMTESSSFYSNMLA
# UniProt P16177, whole entry, looked up: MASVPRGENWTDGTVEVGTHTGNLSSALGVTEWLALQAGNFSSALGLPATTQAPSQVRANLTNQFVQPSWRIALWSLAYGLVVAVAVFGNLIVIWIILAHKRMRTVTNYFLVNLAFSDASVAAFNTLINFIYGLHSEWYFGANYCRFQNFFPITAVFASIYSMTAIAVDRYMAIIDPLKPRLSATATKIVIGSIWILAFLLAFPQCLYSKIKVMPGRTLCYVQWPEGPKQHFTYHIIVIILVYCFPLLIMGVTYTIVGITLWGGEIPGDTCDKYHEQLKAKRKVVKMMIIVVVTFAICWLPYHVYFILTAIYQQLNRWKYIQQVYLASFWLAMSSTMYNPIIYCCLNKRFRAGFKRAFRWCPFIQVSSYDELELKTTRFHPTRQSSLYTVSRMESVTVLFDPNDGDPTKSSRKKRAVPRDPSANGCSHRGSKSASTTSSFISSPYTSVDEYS
# The shares of active, inactive and inconclusive entries below differ from those in the screen. For some of these results: Where the call is inconclusive, the potency comes from a doubtful curve fit. The source made the active and inactive calls. How the source made its calls: active means hit-call score of the fitted dose curve at least 0.9, where 1 is the maximum; inconclusive means response in the unintended direction; inactive means score below 0.9.
# How the values were obtained:
# [1] = molecular target: rat Adrenergic Receptor, Alpha 2 (Adra2), Non-selective Binding, Adra2a (gene 25083) (UniProt P22909); assay: NVS_GPCR_rAdra2_NonSelective: NovaScreen (NVS) G Protein-Coupled Receptor Assay for rat Adrenergic Receptor, Alpha 2 (Adra2), Non-selective Binding (AID 2283299)
# Procedure, shortened: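 Filter-based scintillation counting of radioligand binding to rat cortical membrane receptors, measured 1.25 hours post-dosing; loss of signal versus DMSO indicates displacement. Initial single-concentration duplicate at 25 uM, then concentration series.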
# [2] = molecular target: rat Vasopressin 1 Receptor (V1), Avpr1a (gene 25107) (UniProt P30560); assay: NVS_GPCR_rV1: NovaScreen (NVS) G Protein-Coupled Receptor Assay for rat Vasopressin 1 Receptor (V1) (AID 2283316)
# Procedure, shortened: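 Concentration-response up to 50 uM for chemicals passing a threshold such as 30% inhibition in an initial duplicate 25 uM screen. Displacement of radioligand from rat liver membranes measured after 1.5 h by filtration and scintillation.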
# [3] = molecular target: rat Histamine Receptor (H3), Hrh3 (gene 85268) (UniProt Q9QYN8); assay: NVS_GPCR_rH3: NovaScreen (NVS) G Protein-Coupled Receptor Assay for rat Histamine Receptor (H3) (AID 2283303)
# Procedure, shortened: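 Filter-binding radioligand competition on rat forebrain membranes, 1 h incubation; compounds screened at 25 µM in duplicate and followed in concentration series to 50 µM, loss of bound signal vs DMSO.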
# [4] = NVS_IC_rCaDHPRCh_L: NovaScreen (NVS) Ion Channel Assay for rat Calcium Channel, Type L, Dihydropyridine Site (CaDHPRCh_L) (AID 2283320)
# Procedure, shortened: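 Rat cortex membrane preparation; dihydropyridine-site radioligand displacement read 1 h post-dose by filtration and scintillation. Primary single-point screen 25 uM in duplicate, then concentration series to 50 uM maximum; DMSO as negative control.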
# [5] = molecular target: rat Opioid Receptor, Non-selective Sodium (Na+) Binding, Oprm1 (gene 25601) (UniProt P33535); assay: NVS_GPCR_rOpiate_NonSelectiveNa: NovaScreen (NVS) G Protein-Coupled Receptor Assay for rat Opioid Receptor, Non-selective Sodium (Na+) Binding (AID 2283311)
# Procedure, shortened: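 Filtration radioligand binding on rat forebrain membrane preparations, read 1.5 h after dosing. Single-concentration 25 µM primary screen in duplicate, followed by singleton concentration series to 50 µM max for actives; DMSO baseline.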
# [6] = molecular target: rat Somatostatin Receptor (SST), Sstr1 (gene 25033) (UniProt P28646); assay: NVS_GPCR_rSST: NovaScreen (NVS) G Protein-Coupled Receptor Assay for rat Somatostatin Receptor (SST) (AID 2283314)
# Procedure, shortened: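 Single-concentration duplicate screen (25 uM), then concentration-response up to 50 uM for chemicals passing a threshold such as 30% inhibition. Membranes came from rat forebrain. Binding was measured 1 h post-dose by filter radiodetection and scintillation, relative to DMSO.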
# [7] = molecular target: bovine Gamma-Aminobutyric Acid Type A Receptor BDZ, alpha 5 site (GABARa5), GABRA5 (gene 523515) (UniProt Q08E50); assay: NVS_LGIC_bGABARa5: NovaScreen (NVS) Ligand-Gated Ion Channel Assay for bovine Gamma-Aminobutyric Acid Type A Receptor BDZ, alpha 5 site (GABARa5) (AID 2283323)
# Procedure, shortened: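 Tested first in duplicate at a single 25 uM, with hits re-run in concentration series to a 50 uM maximum. Bovine hippocampal membranes; specific radioligand displacement measured by filter scintillation counting 1 hr post-dose.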
# [8] = molecular target: rat Opioid Receptor, Non-selective Binding, Oprm1 (gene 25601) (UniProt P33535); assay: NVS_GPCR_rOpiate_NonSelective: NovaScreen (NVS) G Protein-Coupled Receptor Assay for rat Opioid Receptor, Non-selective Binding (AID 2283318)
# Procedure, shortened: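 Filter-based radioligand displacement using rat forebrain membrane preparations, measured 1.5 h post-dosing. Single-concentration duplicate screen at 25 uM, follow-up in concentration series; activity taken as signal loss relative to DMSO.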
# [9] = molecular target: rat Neonicotinoid receptor (NNR), Chrna7 (gene 25302) (UniProt Q05941); assay: NVS_LGIC_rNNR_BungSens: NovaScreen (NVS) Ligand-Gated Ion Channel Assay for rat Neonicotinoid receptor (NNR) (AID 2283315)
# Procedure, shortened: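 Rat cortical membrane preparation incubated 2.5 h with tritiated or iodinated radioligand and test chemical. Bound radioactivity was filtered and counted by scintillation, and displacement was analysed against DMSO.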
# [10] = molecular target: rat Neurokinin-1 Receptor (NK1), Tacr1 (gene 24807) (UniProt P14600); assay: NVS_GPCR_rNK1: NovaScreen (NVS) G Protein-Coupled Receptor Assay for rat Neurokinin-1 Receptor (NK1) (AID 2283309)
# Procedure, shortened: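 Competitive radioligand binding to NK1 in rat submaxillary membranes, 1 h incubation, filtration and scintillation read-out. Compounds first screened at 25 uM in duplicate, then concentration-response for actives; signal loss relative to DMSO.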
# [11] = molecular target: rat Neurokinin-3 Receptor (NK3), Tacr3 (gene 24808) (UniProt P16177); assay: NVS_GPCR_rNK3: NovaScreen (NVS) G Protein-Coupled Receptor Assay for rat Neurokinin-3 Receptor (NK3) (AID 2283310)
# Procedure, shortened: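 Filter-based radioligand displacement on rat cortex membrane preparations, read by scintillation 2 h post-dose. Chemicals first tested in duplicate at 25 uM; actives followed up in concentration series with a 50 uM maximum.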
# [12] = tested on: NCBI gene 24521; assay: NVS_IC_rKATPCh: NovaScreen (NVS) Ion Channel Assay for rat Potassium Channel, ATP-Sensitive (KATPCh) (AID 2283319)
# Procedure, shortened: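 Primary duplicate screen at 25 uM, then singleton concentration series to 50 uM maximum, in a rat cortex membrane radioligand displacement assay. Binding measured by filtration and scintillation 2 h post-dose; DMSO baseline.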
# [13] = molecular target: Voltage-dependent N-type calcium channel subunit alpha-1B (Rattus norvegicus) (UniProt Q02294); assay: NVS_IC_rCaChN: NovaScreen (NVS) Ion Channel Assay for rat Calcium Channel, Type N (CaChN) (AID 2283317)
smiles,measurement,setting,value
CCCCC(CC)COC(=O)CC(C(=O)OCC(CC)CCCC)S(=O)(=O)O (centres undefined),AC50,[1],active: 32.9 µM
CCCOc1sc(C(=O)N2CCC(c3cc(CN)ccc3F)CC2)c(C)c1Br,AC50,[1],active: 23.2 µM
same,AC50,[2],active: 23.2 µM
CCOC(=O)CCC(=O)OCC,AC50,[3],inconclusive: 25 µM
same,AC50,[4],inconclusive: 25 µM
CCn1nc(C)c2c1C(=O)NCC(c1ccc(O)cc1)=N2,AC50,[3],inconclusive: 0.0839 µM
same,AC50,[5],inconclusive: 6.26 µM
same,AC50,[6],inconclusive: 0.497 µM
same,AC50,[7],inconclusive: 25 µM
COc1cc(C(=O)NC2CCN(C)CC2)ccc1Nc1ncc2c(n1)N(C1CCCC1)CC(F)(F)C(=O)N2C,outcome,[5],inactive
same,AC50,[8],inconclusive: 23.2 µM
CCCCc1nc2cccnc2n1Cc1ccc(-c2ccccc2-c2nnn[nH]2)cc1,outcome,[9],inactive
same,outcome,[7],inactive
CCOC(=O)C(C)Oc1ccc(Oc2nc3ccc(Cl)cc3o2)cc1 (centres undefined),outcome,[4],inactive
c1ccc(C[n+]2cccc3ccccc32)cc1,AC50,[9],active: 25 µM
Nc1ccccc1N,outcome,[10],inactive
Cc1ccc2oc(CN(Cc3ccccc3)C(=O)Nc3c(F)cc(F)cc3F)c(-c3ccc(Cl)cc3)c2c1,AC50,[11],inconclusive: 22.1 µM
same,AC50,[5],inconclusive: 22.1 µM
CCCCCCCCCC[N+](C)(C)[O-],AC50,[5],inconclusive: 25 µM
O=C1NC(=O)[C@@H]2CC=CC[C@H]12,AC50,[9],inconclusive: 0.124 µM
Cc1nc(-c2ccc3c(c2)CCN(CCC2CCC(NC(=O)/C=C/c4ccc(F)cc4)CC2)CC3)no1 (centres undefined),outcome,[9],inactive
same,AC50,[2],inconclusive: 11.6 µM
Cc1ccc2ncccc2c1,AC50,[9],inconclusive: 25 µM
C/C=C/C=C/C(=O)O,AC50,[2],inconclusive: 41.5 µM
COC(=O)c1ccccc1S(=O)(=O)NC(=O)Nc1nc(OC(F)F)cc(OC(F)F)n1,AC50,[6],active: 36.3 µM
same,AC50,[12],inconclusive: 25 µM
CCCCCCCCCCCCc1ccccc1,AC50,[9],inconclusive: 5.85 µM
Cc1oc2c(NC(=O)c3c(Cl)cccc3Cl)cccc2c1C(C)(C)O,outcome,[10],inactive
same,AC50,[11],inconclusive: 25 µM
COC(=O)CSc1cc(N=c2sc(=O)n3n2CCCC3)c(F)cc1Cl,AC50,[9],inconclusive: 25 µM
same,outcome,[13],inactive
Cc1[nH]nc2c1N=C(c1ccccc1Cl)c1cc([N+](=O)[O-])ccc1N2,AC50,[11],inconclusive: 21.7 µM
same,AC50,[9],inconclusive: 25 µM
same,AC50,[13],inconclusive: 15.4 µM

# Rewritten with bars between the fields: entries from further up
smiles | measurement | setting | value
CCn1nc(C)c2c1C(=O)NCC(c1ccc(O)cc1)=N2 | AC50 | [7] | inconclusive: 25 µM
c1ccc(C[n+]2cccc3ccccc32)cc1 | AC50 | [9] | active: 25 µM
